Measured values: PMC5167762
These are yes or no findings as the source states them, for the method shown. Some entries that bind do so weakly or less than the wild type.

Amino acid sequences for entries named in this document (tags omitted).
UniProt Q84TB5: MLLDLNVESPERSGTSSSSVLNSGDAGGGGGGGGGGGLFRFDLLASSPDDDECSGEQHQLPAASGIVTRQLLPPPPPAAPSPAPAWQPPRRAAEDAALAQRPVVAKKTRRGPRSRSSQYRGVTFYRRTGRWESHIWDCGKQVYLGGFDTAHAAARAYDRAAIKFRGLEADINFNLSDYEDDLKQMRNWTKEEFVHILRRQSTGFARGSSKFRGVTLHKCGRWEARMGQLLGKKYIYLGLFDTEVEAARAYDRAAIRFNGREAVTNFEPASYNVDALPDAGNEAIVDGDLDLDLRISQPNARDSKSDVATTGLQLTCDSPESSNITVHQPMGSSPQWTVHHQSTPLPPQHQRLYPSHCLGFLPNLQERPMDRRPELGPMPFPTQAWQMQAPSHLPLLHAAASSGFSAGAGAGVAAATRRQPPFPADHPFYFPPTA
UniProt Q8H443: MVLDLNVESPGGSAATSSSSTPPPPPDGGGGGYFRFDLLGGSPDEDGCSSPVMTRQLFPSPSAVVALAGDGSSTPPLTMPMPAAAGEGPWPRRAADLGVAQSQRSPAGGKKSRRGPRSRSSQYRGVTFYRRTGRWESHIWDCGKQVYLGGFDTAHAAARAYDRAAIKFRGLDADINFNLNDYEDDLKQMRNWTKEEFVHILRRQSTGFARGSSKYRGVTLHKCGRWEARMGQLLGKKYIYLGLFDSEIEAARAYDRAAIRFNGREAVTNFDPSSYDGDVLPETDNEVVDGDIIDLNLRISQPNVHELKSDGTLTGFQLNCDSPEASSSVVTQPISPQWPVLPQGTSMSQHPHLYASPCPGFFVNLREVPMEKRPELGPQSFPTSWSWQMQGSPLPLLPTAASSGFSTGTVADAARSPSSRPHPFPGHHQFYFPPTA
UniProt Q10PZ9: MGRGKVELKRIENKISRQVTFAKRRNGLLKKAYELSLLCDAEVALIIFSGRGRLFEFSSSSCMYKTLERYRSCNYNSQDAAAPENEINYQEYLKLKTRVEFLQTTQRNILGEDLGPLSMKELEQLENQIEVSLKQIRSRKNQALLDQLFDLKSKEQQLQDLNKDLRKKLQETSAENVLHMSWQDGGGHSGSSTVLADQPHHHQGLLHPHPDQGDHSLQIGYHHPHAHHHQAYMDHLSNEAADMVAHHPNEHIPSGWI

Experiments:
[1] = target: AP2-2 (rice (Oryza sativa japonica)) (UniProt Q84TB5); assay: two-hybrid; yeast two-hybrid (Clontech); OsMADS1 ORF in the prey vector pGAD-T7, ORFs of AP2s in the bait vector pGBK-T7
[2] = target: AP2-3 (rice (Oryza sativa japonica)) (UniProt Q8H443); assay: as above

binding [1]: binds
binding [2]: binds
Substance: OsMADS1 (from UniProt Q10PZ9 1-257)
